Data on 39 compounds can be found in PubChem BioAssay (NCATS).

Several values for one entry are separate records, joined by “and”; a condition that tells them apart may be missing. Equal entries are not always repeated. The list shows a part of the results. Further columns of the screen follow, without active or inactive calls. The list favours compounds with an active or inconclusive main result.

The first assay in a line: qHTS assay for small molecule agonists of retinoid X receptor alpha signaling (AID 588544). Conditions: HEK293T RXRa-UAS-bla, beta-lactamase reporter, 18 h; 530 nm emission. On the technique in general: Quantitative high-throughput screening tests each substance at several concentrations.
On to `O=C(Nc1ccccc1)c1ccccc1O`, for which the max response is -18.9%.

As for `COc1c2ccoc2cc2oc(=O)ccc12`, the max response amounted to 9.36%.

As to `Nc1ccc(Nc2ccccc2)cc1`, the max response was determined as 2.65%.

Take `CC(C)CCCCCCc1ccc(O)cc1`: the max response was -45.7%.

On to `IC(I)I`, for which the max response is -15.3%.

Regarding `O=S(c1ccc(Cl)cc1)c1cc(Cl)c(Cl)cc1Cl` (stereo not drawn), the max response is 31.1%.

Take `CC(C)C[C@H](NC(=O)OCC1c2ccccc2-c2ccccc21)C(=O)O`: the max response turned out to be 32.4%.

Turning to `c1ccc2occc2c1`, the max response is 22.7% and -19.1%.

Regarding `CCCCCCc1ccc(N)cc1`, the max response was -3.68%.

Consider `C[Si]1(C)O[Si](C)(C)O[Si](C)(C)O[Si](C)(C)O1`, for which the max response is -6.19%.

For `S=C1NC=NC2N=CNC12` (stereo not drawn), the max response was 41%.

`O=C(O)CCCc1c[nH]c2ccccc12`: the max response was 14.6%.

As to `CC/C(=C(\c1ccccc1)c1ccc(OCCN(C)C)cc1)c1ccc(O)cc1`, the max response turned out to be 29.8%.

`Oc1ccc(C(c2ccc(O)cc2)C(Cl)(Cl)Cl)cc1`: the max response is 21.4%.

For `CCCCCCCCCCCCCCC`, the max response was -19.1%.

Take `CCOC(=O)[C@H](C)Oc1ccc(Oc2nc3ccc(Cl)cc3o2)cc1`: the max response was determined as 24.1%.

On to `Nc1c2ccccc2nc2ccccc12`, for which the max response was 22.9%.

As for `Brc1ccc(Oc2ccc(Br)cc2)cc1`, the max response was -5.86%.

In the case of `CCCCNC(=O)NS(=O)(=O)c1ccc(C)cc1`, the max response came to 1.32%.

Turning to `CCN(Cc1c(F)cccc1Cl)c1c([N+](=O)[O-])cc(C(F)(F)F)cc1[N+](=O)[O-]`, the max response was -1.55%.

As for `Nc1nc2ccccc2[nH]1`, the max response is -37.7%.

The nature of the next assay: qHTS assay for small molecule antagonists of retinoid X receptor alpha signaling (AID 588546).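 Also: cells stimulated with 9-cis-retinoic acid as agonist; % is scaled to controls: 0 for no effect and ±100 for the full control effect.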 Conditions: HEK293T RXRa-UAS-bla, beta-lactamase ratio, antagonist mode; measured here: W530 green channel, cytotoxicity proxy. A digest of the protocol:
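Beta-lactamase reporter inhibition, read as CCF4 fluorescence ratio (ex 405, em 460/530 nm) after 2 h at RT. HEK293T UAS-bla cells, 2500/well, were stimulated with 9-cis-RA at 500 or 100 nM final alongside test compound for 18 h at 37 C.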
For the compound `c1ccncc1`, the max response was -10.4%.

Consider `CC(C)[C@@H]1CC[C@@H](C)C[C@H]1O`, for which the max response is -7.44%.

As for `CC/C(C)=N/O`, the max response is -5.21%.

On to `O=C(Nc1ccccc1)c1ccccc1O`, for which the max response was -9.03%.

Turning to `Cc1cccc2cccnc12`, the max response was -11.2%.

For `CCOC(C)=O`, the max response is -16.6%.

In the case of `C=C1CC[C@H](O)C/C1=C/C=C1\CCC[C@]2(C)[C@@H]([C@H](C)CCCC(C)C)CC[C@@H]12`, the max response was 13.2%.

For `CN1C(=O)c2ccccc2C1=O`, the max response was -11.4%.

As to `c1ccc(Nc2cccc3ccccc23)cc1`, the max response was -1.93%.

In the case of `CC(C)CCCCCCc1ccc(O)cc1`, the max response is -45.2%.

With `NCCCCCCCCCCC(=O)O`, the max response is -4.81%.

Consider `O=S(c1ccc(Cl)cc1)c1cc(Cl)c(Cl)cc1Cl` (stereo not drawn), for which the max response turned out to be 5.66%.

As for `CC(C)C[C@H](NC(=O)OCC1c2ccccc2-c2ccccc21)C(=O)O`, the max response was determined as 12.6%.

Turning to `c1ccc2occc2c1`, the max response was -2.99%.

On to `C=C(C)C(=O)OCCCCCC`, for which the max response was -13.9%.

As to `CN(C)c1nc(=O)n(C2CCC(O)CC2)c(=O)n1C` (stereo not drawn), the max response is -9.35%.

Take `CCCCN(CCCC)CCCCCCN(CCCC)CCCC`: the max response was -9.64%.

With `CC(C)(C)c1cc(C(C)(C)C)c(O)c(C(C)(C)C)c1`, the max response is -14%.

`O=S(=O)(O)c1cc(S(=O)(=O)O)c2c(N=Nc3ccccc3)c(O)ccc2c1`: the max response was -14.3%.

As for `Brc1ccc(-c2ccccc2)cc1`, the max response was -4.11%.

With `O=C(c1ccccc1)C(O)c1ccccc1` (stereo not drawn), the max response was -11.9%.

Regarding `CC(=O)[C@H]1[C@H](C#N)C[C@H]2[C@@H]3CC=C4C[C@@H](O)CC[C@]4(C)[C@H]3CC[C@@]21C`, the max response was 28.3%.

For `Oc1ccc(C(c2ccc(O)cc2)C(Cl)(Cl)Cl)cc1`, the max response is 2.96%.

With `Nc1c2ccccc2nc2ccccc12`, the max response was 30.1%.

On to `CCCCNC(=O)NS(=O)(=O)c1ccc(C)cc1`, for which the max response is -0.874%.

Regarding `COc1cccc(N)c1`, the max response was -10.2%.

In the case of `CCN(Cc1c(F)cccc1Cl)c1c([N+](=O)[O-])cc(C(F)(F)F)cc1[N+](=O)[O-]`, the max response was -15%.
